In patent publication US20210261642A1, “SOLUBILITY OF GLP-1 PEPTIDE” (Novo Nordisk A/S, priority 2017, published 2021):
Further values from the same series stand in other lists.

Experiment: Assay (I): Determination of Solubility (96-well plate, pH 3.0-11.0, organic solvent 0-70% w/w, UV absorption at 280 nm)
Type: physicochemical
Experimental: Assay (I): Determination of Solubility
96-Well Plate Preparation
96-well plates containing target peptide in a solid form were prepared in one of two ways:
Method 1 (evaporation): Addition of 100 μl stock solution of said peptide at a concentration of 4-6 mg/ml to each well of a 96-well half area plate (150 μl well size). Subsequently the solvent was evaporated by applying a vacuum until the solvent was completely removed.
Method 2 (precipitation): Addition of a certain volume of a stock solution of said peptide containing to each well of a 96-well half area plate followed by the addition of a certain volume of concentrated phosphoric acid to obtain a pH of 4.6 followed by addition of a certain volume of ethanol resulting in a final ethanol concentration of 20% v/v. Subsequently the plate was stored at 4° C. for 1 h and then centrifuged at 4,000 rpm for 20 min. Finally the supernatant was removed. The concentration of the stock solution was chosen in a way that the final amount of peptide after supernatant removal was >0.4 mg per well.
In both cases the stock solution was prepared by adding de-ionized water to a certain amount of powder of said peptide followed by a stepwise addition of small amounts of a concentrated sodium hydroxide solution until said peptide was completely in solution.
To determine solubility of a target peptide at different pH and organic solvent concentrations, two different buffer systems were used in independent experiments to cover the whole range from pH 3.0 to pH 11.0. Buffer system 1 covers pH 3.0-7.5 and buffer system 2 covers pH 7.5-11.0. For each buffer system 96 different solvent compositions were premixed in the following way: • 1. A low pH buffer (adjusted to either pH 3.0 or pH 7.5) and a high pH buffer (adjusted to either pH 7.5 or pH 11.0) were mixed at 8 different ratios to obtain values between pH 3.0 and pH 7.5 or pH 7.5 and pH 11.0, respectively. The total volume after mixing was 300 μl. • 2. 12 different amounts of organic solvent were then added to these buffers to obtain organic solvent (e.g. ethanol) concentrations between 0 and 70% w/w. • 3. Water was then added to obtain a total weight of 1.0 g of solvent in each well.
After preparing the 96 different solvent systems, 100 μl of each system was transferred to the 96-well plate containing the solid form of the target peptide (prepared as described in the section “96-well plate preparation”). The plate was then stored at a given temperature (between 5° C. and 70° C.) for a given time on a rotating shaker set to 400 rpm. At regular time intervals the plate was centrifuged (4,000 rpm for 10 min) and a 10 μl sample was taken from each well. The samples were then analysed by UV absorption at 280 nm for peptide quantification. Peptide concentration results are given as UV absorption at 280 nm of the sample subtracted UV absorption at 280 nm of a well comprising 10 μl water.
The buffers used were as follows: • Buffer system 1 (for the pH range from pH 3.0-7.5)
• Buffer system 2 (for the pH ranae from pH 7.5-11.0)
Solubility of liraglutide was determined using Assay (I) described herein. Liraglutide was prepared using Method 1 (evaporation) or Method 2 (precipitation) as described in subsection “96-well plate preparation”.

[1] = MeCN 57.3% w/w, pH 3.0, RT, Method 1
[2] = MeCN 57.3% w/w, pH 3.6, 5° C., Method 1
[3] = MeCN 57.3% w/w, pH 3.6, RT, Method 1
[4] = MeCN 57.3% w/w, pH 4.3, 5° C., Method 1
[5] = MeCN 57.3% w/w, pH 4.3, 70° C., Method 1
[6] = MeCN 57.3% w/w, pH 4.3, RT, Method 1
[7] = MeCN 57.3% w/w, pH 4.9, 5° C., Method 1
[8] = MeCN 57.3% w/w, pH 4.9, 70° C., Method 1
[9] = MeCN 57.3% w/w, pH 4.9, RT, Method 1
[10] = MeCN 57.3% w/w, pH 5.6, 5° C., Method 1
[11] = MeCN 57.3% w/w, pH 5.6, 70° C., Method 1
[12] = MeCN 57.3% w/w, pH 5.6, RT, Method 1
[13] = MeCN 57.3% w/w, pH 6.2, 5° C., Method 1
[14] = MeCN 57.3% w/w, pH 6.2, 70° C., Method 1
[15] = MeCN 57.3% w/w, pH 6.2, RT, Method 1
[16] = MeCN 57.3% w/w, pH 6.9, 5° C., Method 1
[17] = MeCN 57.3% w/w, pH 6.9, 70° C., Method 1
[18] = MeCN 57.3% w/w, pH 6.9, RT, Method 1
[19] = MeCN 57.3% w/w, pH 7.5, 5° C., Method 1
[20] = MeCN 57.3% w/w, pH 7.5, 70° C., Method 1
[21] = MeCN 57.3% w/w, pH 7.5, RT, Method 1
[22] = MeCN 57.3% w/w, pH 8.0, 70° C., Method 1 (evaporation)
[23] = MeCN 57.3% w/w, pH 8.0, RT, Method 1
[24] = MeCN 57.3% w/w, pH 8.5, 70° C., Method 1 (evaporation)
[25] = MeCN 57.3% w/w, pH 8.5, RT, Method 1
[26] = MeCN 57.3% w/w, pH 9.0, 70° C., Method 1 (evaporation)
[27] = MeCN 57.3% w/w, pH 9.0, RT, Method 1
[28] = MeCN 57.3% w/w, pH 9.5, 70° C., Method 1 (evaporation)
[29] = MeCN 57.3% w/w, pH 9.5, RT, Method 1
[30] = MeCN 57.3% w/w, pH 10.0, 70° C., Method 1 (evaporation)
[31] = MeCN 57.3% w/w, pH 10.0, RT, Method 1
[32] = MeCN 57.3% w/w, pH 10.5, 70° C., Method 1 (evaporation)
[33] = MeCN 57.3% w/w, pH 10.5, RT, Method 1
[34] = MeCN 57.3% w/w, pH 11.0, 70° C., Method 1 (evaporation)
[35] = MeCN 57.3% w/w, pH 11.0, RT, Method 1
[36] = MeCN 63.6% w/w, pH 3.0, 5° C., Method 1
[37] = MeCN 63.6% w/w, pH 3.0, 70° C., Method 1

## CCCCCCCCCCCCCCCC(=O)N[C@@H](CCC(=O)NCCCC[C@H](NC(=O)[C@H](C)NC(=O)[C@H](C)NC(=O)[C@H](CCC(N)=O)NC(=O)CNC(=O)[C@H](CCC(=O)O)NC(=O)[C@H](CC(C)C)NC(=O)[C@H](Cc1ccc(O)cc1)NC(=O)[C@H](CO)NC(=O)[C@H](CO)NC(=O)[C@@H](NC(=O)[C@H](CC(=O)O)NC(=O)[C@H](CO)NC(=O)[C@@H](NC(=O)[C@H](Cc1ccccc1)NC(=O)[C@@H](NC(=O)CNC(=O)[C@H](CCC(=O)O)NC(=O)[C@H](C)NC(=O)[C@@H](N)Cc1cnc[nH]1)[C@@H](C)O)[C@@H](C)O)C(C)C)C(=O)N[C@@H](CCC(=O)O)C(=O)N[C@@H](Cc1ccccc1)C(=O)N[C@H](C(=O)N[C@@H](C)C(=O)N[C@@H](Cc1c[nH]c2ccccc12)C(=O)N[C@@H](CC(C)C)C(=O)N[C@H](C(=O)N[C@@H](CCCNC(=N)N)C(=O)NCC(=O)N[C@@H](CCCNC(=N)N)C(=O)NCC(=O)O)C(C)C)[C@@H](C)CC)C(=O)O [liraglutide, Arg34,Lys26-(N-epsilon-(gamma-L-glutamyl(N-alfa-hexadecanoyl)))-GLP-1(7-37)]
MeCN 57.3% w/w, pH 3.0, 70° C., Method 1
  Peptide concentration after 180 min: 2.6 mg/mL
[1]
  Peptide concentration after 5 min: 0.4 mg/mL
  Peptide concentration after 180 min: 1.0 mg/mL
  Peptide concentration after 24 h: 1.3 mg/mL
[2]
  Peptide concentration after 5 min: 0.2 mg/mL
  Peptide concentration after 180 min: 0.5 mg/mL
  Peptide concentration after 24 h: 0.7 mg/mL
MeCN 57.3% w/w, pH 3.6, 70° C., Method 1
  Peptide concentration after 5 min: 0.5 mg/mL
[3]
  Peptide concentration after 5 min: 0.2 mg/mL
  Peptide concentration after 180 min: 0.4 mg/mL
  Peptide concentration after 24 h: 0.4 mg/mL
[4]
  Peptide concentration after 5 min: 0.2 mg/mL
  Peptide concentration after 180 min: 0.4 mg/mL
  Peptide concentration after 24 h: 0.5 mg/mL
[5]
  Peptide concentration after 5 min: 0.5 mg/mL
  Peptide concentration after 180 min: 1.3 mg/mL
[6]
  Peptide concentration after 5 min: 0.2 mg/mL
  Peptide concentration after 180 min: 0.4 mg/mL
  Peptide concentration after 24 h: 0.3 mg/mL
[7]
  Peptide concentration after 5 min: 0.2 mg/mL
  Peptide concentration after 180 min: 0.4 mg/mL
  Peptide concentration after 24 h: 0.4 mg/mL
[8]
  Peptide concentration after 5 min: 0.6 mg/mL
  Peptide concentration after 180 min: 1.3 mg/mL
[9]
  Peptide concentration after 5 min: 0.2 mg/mL
  Peptide concentration after 180 min: 0.4 mg/mL
  Peptide concentration after 24 h: 0.2 mg/mL
[10]
  Peptide concentration after 5 min: 0.3 mg/mL
  Peptide concentration after 180 min: 0.6 mg/mL
  Peptide concentration after 24 h: 0.7 mg/mL
[11]
  Peptide concentration after 5 min: 0.9 mg/mL
  Peptide concentration after 180 min: 1.8 mg/mL
[12]
  Peptide concentration after 5 min: 0.3 mg/mL
  Peptide concentration after 180 min: 0.6 mg/mL
  Peptide concentration after 24 h: 0.5 mg/mL
[13]
  Peptide concentration after 5 min: 0.6 mg/mL
  Peptide concentration after 180 min: 0.7 mg/mL
  Peptide concentration after 24 h: 0.7 mg/mL
[14]
  Peptide concentration after 5 min: 0.9 mg/mL
  Peptide concentration after 180 min: 2.0 mg/mL
[15]
  Peptide concentration after 5 min: 0.5 mg/mL
  Peptide concentration after 180 min: 0.5 mg/mL
  Peptide concentration after 24 h: 0.6 mg/mL
[16]
  Peptide concentration after 5 min: 0.3 mg/mL
  Peptide concentration after 180 min: 0.6 mg/mL
  Peptide concentration after 24 h: 1.1 mg/mL
[17]
  Peptide concentration after 5 min: 0.9 mg/mL
  Peptide concentration after 180 min: 2.7 mg/mL
[18]
  Peptide concentration after 5 min: 0.4 mg/mL
  Peptide concentration after 180 min: 0.8 mg/mL
  Peptide concentration after 24 h: 0.9 mg/mL
[19]
  Peptide concentration after 5 min: 1.6 mg/mL
  Peptide concentration after 180 min: 2.3 mg/mL
  Peptide concentration after 24 h: 2.9 mg/mL
[20]
  Peptide concentration after 5 min: 3.3 mg/mL
  Peptide concentration after 180 min: >4.0 mg/mL
[21]
  Peptide concentration after 5 min: 0.8 mg/mL
  Peptide concentration after 180 min: 3.0 mg/mL
  Peptide concentration after 24 h: >4.0 mg/mL
[22]
  Peptide concentration after 5 min: 3.4 mg/mL
  Peptide concentration after 180 min: >4.0 mg/mL
[23]
  Peptide concentration after 5 min: 0.6 mg/mL
  Peptide concentration after 180 min: 2.8 mg/mL
  Peptide concentration after 24 h: >4.0 mg/mL
[24]
  Peptide concentration after 5 min: 3.7 mg/mL
  Peptide concentration after 180 min: >4.0 mg/mL
[25]
  Peptide concentration after 5 min: 0.5 mg/mL
  Peptide concentration after 180 min: 2.9 mg/mL
  Peptide concentration after 24 h: >4.0 mg/mL
[26]
  Peptide concentration after 5 min: 1.6 mg/mL
  Peptide concentration after 180 min: >4.0 mg/mL
[27]
  Peptide concentration after 5 min: 0.4 mg/mL
  Peptide concentration after 180 min: 2.2 mg/mL
  Peptide concentration after 24 h: >4.0 mg/mL
[28]
  Peptide concentration after 5 min: 4.0 mg/mL
  Peptide concentration after 180 min: >4.0 mg/mL
[29]
  Peptide concentration after 5 min: 0.7 mg/mL
  Peptide concentration after 180 min: 3.0 mg/mL
  Peptide concentration after 24 h: >4.0 mg/mL
[30]
  Peptide concentration after 5 min: 2.5 mg/mL
  Peptide concentration after 180 min: >4.0 mg/mL
[31]
  Peptide concentration after 5 min: 1.0 mg/mL
  Peptide concentration after 180 min: 2.0 mg/mL
  Peptide concentration after 24 h: >4.0 mg/mL
[32]
  Peptide concentration after 5 min: 2.6 mg/mL
  Peptide concentration after 180 min: >4.0 mg/mL
[33]
  Peptide concentration after 5 min: 0.8 mg/mL
  Peptide concentration after 180 min: 1.6 mg/mL
  Peptide concentration after 24 h: >4.0 mg/mL
[34]
  Peptide concentration after 5 min: 3.6 mg/mL
  Peptide concentration after 180 min: >4.0 mg/mL
[35]
  Peptide concentration after 5 min: 0.7 mg/mL
  Peptide concentration after 180 min: 2.7 mg/mL
  Peptide concentration after 24 h: >4.0 mg/mL
[36]
  Peptide concentration after 5 min: 0.4 mg/mL
  Peptide concentration after 180 min: 0.7 mg/mL
  Peptide concentration after 24 h: 1.2 mg/mL
[37]
  Peptide concentration after 5 min: 0.9 mg/mL
  Peptide concentration after 180 min: 2.8 mg/mL
MeCN 63.6% w/w, pH 3.0, RT, Method 1
  Peptide concentration after 5 min: 0.3 mg/mL
